Measurements reported in PubChem BioAssay AID1508597 (Cure First, 2020)
Aim: 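Survival screen with siRNA in ovarian cancer cells derived from patients, with or without rucaparib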 (primary screen). Cell system: human ovarian carcinoma lines grown from tumours: OCI-P5x (papillary serous) and OCI-C5x (clear cell). Reagents: siRNA pool against human genes, 1.25 pmol siRNA per well. Duration: 72 h or 96 h, depending on the cell culture. Conditions: rucaparib 20 µM (about IC30) or vehicle, present until read-out. Rucaparib or vehicle: Rucaparib. Cell line: OCI-C5x (clear cell). Measurement: 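Luminescent ATP-based viability assay read 72 or 96 h after transfection, depending on culture, given as normalised percent viability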. Scale: viability, normalised: higher = more viable cells remaining. Active means: 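a well counts as a hit if its normalised viability is under 80 percent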. Meaning of the calls: active = viability under 80%; inactive = viability 80% or more.
Shown is a random part of the about 2,100 reagents, in one setting of the screen. 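Calls flag viability under 80% in either arm, not effects specific to rucaparib; the reference for percent is not stated.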 A reagent listed more than once was tested more than once; the source does not tell the runs apart. No sequences are given here. Not given: the 100% reference.

Gene	PubChem SID	technical replicate	viability, normalised (%)	call
SETMAR	SID405527290	1	69.8	active
SETMAR	SID405527290	1	40.4	active
SETMAR	SID405527290	2	40.4	active
SETMAR	SID405527290	2	71	active
SETMAR	SID405527290	3	72.7	active
SETMAR	SID405527290	3	33.9	active
CHIC1	SID405528109	1	61.7	active
CHIC1	SID405528109	2	41.2	active
CHIC1	SID405528109	3	41.1	active
IRAK3	SID405527912	1	59.1	active
IRAK3	SID405527912	2	65.3	active
IRAK3	SID405527912	3	63.8	active
CDK17	SID405527512	1	48.6	active
CDK17	SID405527512	2	54.1	active
CDK17	SID405527512	3	50.1	active
SKIC2	SID405527306	1	55.4	active
SKIC2	SID405527306	2	39.8	active
SKIC2	SID405527306	3	41.1	active
IKBKE	SID405527661	1	57	active
IKBKE	SID405527661	2	60	active
IKBKE	SID405527661	3	48.1	active
PRKCA	SID405527196	1	30.2	active
PRKCA	SID405527196	1	99.5	inactive
PRKCA	SID405527196	2	131	inactive
PRKCA	SID405527196	2	34	active
PRKCA	SID405527196	3	89.2	inactive
PRKCA	SID405527196	3	32.9	active
DHX30	SID405528212	1	46.1	active
DHX30	SID405528212	2	55.3	active
DHX30	SID405528212	3	26	active
TSPYL2	SID405526592	1	67.7	active
TSPYL2	SID405526592	2	64	active
TSPYL2	SID405526592	3	46.7	active
TIE1	SID405526356	1	52.3	active
TIE1	SID405526356	1	38.5	active
TIE1	SID405526356	2	44.3	active
TIE1	SID405526356	2	55.5	active
TIE1	SID405526356	3	47.4	active
TIE1	SID405526356	3	62.4	active
PNKP	SID405528330	1	34.6	active
PNKP	SID405528330	2	36.6	active
PNKP	SID405528330	3	35.7	active
SSRP1	SID405526501	1	81.1	inactive
SSRP1	SID405526501	1	63.3	active
SSRP1	SID405526501	2	77.5	active
SSRP1	SID405526501	2	41.6	active
SSRP1	SID405526501	3	58.4	active
SSRP1	SID405526501	3	66.9	active
GDPD4	SID405526677	1	58.3	active
GDPD4	SID405526677	2	45.5	active
GDPD4	SID405526677	3	42.7	active
NAP1L1	SID405527056	1	34.8	active
NAP1L1	SID405527056	2	43.7	active
NAP1L1	SID405527056	3	46.7	active
EFNA5	SID405526406	1	39.1	active
EFNA5	SID405526406	2	60	active
EFNA5	SID405526406	3	55.3	active

Records above whose target name starts with N or n (3):
Gene	PubChem SID	technical replicate	viability, normalised (%)	call
NAP1L1	SID405527056	1	34.8	active
NAP1L1	SID405527056	2	43.7	active
NAP1L1	SID405527056	3	46.7	active
